# Earlier results, collected in patent publication US4314989A, “Methionine sulfoxide amflioration of acetaminophen toxicity” (priority 1980, dated 1982).
# For at least one compound, name, drawing or mass did not settle the structure.
# Columns and labels:
# [1] = cited from earlier work
# [2] = tested on: acetaminophen hepatotoxicity; settings: J. Kelleher et al.; cited from earlier work
# [3] = tested on: CCl4 hepatotoxicity; settings: in vivo; cited from earlier work
structure (smiles),measurement,setting,value
"c1ccc(Nc2ccc(Nc3ccccc3)cc2)cc1 [diphenyl-p-phenylene-diamine (DDPD), diphenyl-p-phenylene-diamine]",antioxidant activity in vitro,[1],an antioxidant in vitro
same,effect on acetaminophen hepatotoxicity,[2],enhances acetaminophen hepatotoxicity
same,protection against CCl4 hepatotoxicity,[3],gives protection against CCl4 hepatotoxicity
